Reference: PubChem BioAssay AID190 (DTP/NCI, 2004)
The list does not hold the whole screen: it is rich in T/C values a quarter to a half above the control, in often repeated tests (any T/C) and in doses without a T/C. Other doses and runs of a compound stand elsewhere. T/C is the treated group as % of the vehicle group. Some entries give survivors of the animals treated and no T/C: the source holds a T/C of zero for them, seemingly a mark for toxic or unscored doses. Some doses without a T/C left all or most animals alive at the check, yet need not have been tolerated: the source hardly ever lists a survival T/C far under the control, and the zero likely stands for such cases as well. Counts of survivors are from the toxicity check (mostly the fifth day) where no day follows; animals may have died later. Schedules are NCI's codes, read here as Q, the interval in days (D) or hours (H), X, the number of doses. Some entries hold several experiments; their values stand side by side, smallest first. Brackets with × say how often a value occurs here. For survival time, the PubChem record calls one and a half times the control and up active, and a quarter to a half above the control has no call in these data; cut-offs in other NCI protocols can differ. Some T/C values carry the count of animals alive at the toxicity check (mostly the fifth day); without a count, all were alive then.

System: AKR/Lw mice, AKR lymphoma ip, median survival T/C
Assay: NCI In Vivo Anticancer Drug Screen. Data for tumor model Lymphoma AKR (Transplanted) (intraperitoneal) in AKR/Lw mice
Details: T/C endpoint: median survival time, higher T/C = longer survival
Procedure: The antitumor activity of compounds was measured in mice bearing transplantable tumors. Survival or tumor size were measured and the results are expressed as the measurement made in the treated group (T) divided by the measurement made in the vehicle treated control group (C). The tumor model used in this assay is Lymphoma AKR (Transplanted) (intraperitoneal) in AKR/Lw mice

[1] = dose: 12.5 mg/kg/injection, schedule: Q01DX009 (ip), vehicle: saline
[2] = dose: 50.0 mg/kg/injection, schedule: Q01DX009 (ip), vehicle: saline

O=P1(N(CCCl)CCCl)NCCCO1 (configuration not stated)
T/C (dose: 3.5 mg/kg/injection, schedule: Q01DX015 (ip), vehicle: saline): 144 % of control
T/C (dose: 4.0 mg/kg/injection, schedule: Q01DX015 (ip), vehicle: saline): 141 % of control
T/C (dose: 6.2 mg/kg/injection, schedule: Q01DX009 (ip), vehicle: saline): 111, 113, 126, 141 % of control [9 of 10 alive]
T/C (dose: 11.0 mg/kg/injection, schedule: Q01DX015 (ip), vehicle: saline): 138 % of control
T/C (dose: 12.0 mg/kg/injection, schedule: Q01DX009 (ip), vehicle: saline): 125 % of control [9 of 10 alive]
T/C [1]: 117, 123, 147, 200 % of control
survivor count [1]: 8 of 10
T/C (dose: 12.5 mg/kg/injection, schedule: Q04DX003 (ip), vehicle: saline): 125 % of control
T/C (dose: 12.5 mg/kg/injection, schedule: Q07DX005 (ip), vehicle: saline, evaluated on day 5): 135 and 136 % of control
T/C (dose: 12.5 mg/kg/injection, schedule: Q07DX005 (ip), vehicle: saline, evaluated on day 60): 135 and 136 % of control
T/C (dose: 12.5 mg/kg/injection, schedule: Q14DX004 (ip), vehicle: saline): 146 % of control
T/C (dose: 16.0 mg/kg/injection, schedule: Q01DX015 (ip), vehicle: saline): 136 and 144 % of control [9 of 10 alive]
T/C (dose: 16.0 mg/kg/injection, schedule: Q03HX032 (ip), vehicle: saline, evaluated on day 5): 125 % of control
T/C (dose: 16.0 mg/kg/injection, schedule: Q03HX032 (ip), vehicle: saline, evaluated on day 60): 125 % of control
T/C (dose: 25.0 mg/kg/injection, schedule: Q01DX001 (ip), vehicle: saline, evaluated on day 5): 117 % of control
T/C (dose: 25.0 mg/kg/injection, schedule: Q01DX001 (ip), vehicle: saline, evaluated on day 13): 301 % of control
T/C (dose: 25.0 mg/kg/injection, schedule: Q01DX001 (ip), vehicle: saline, evaluated on day 60): 95, 104, 116, 117, 126 % of control
T/C (dose: 25.0 mg/kg/injection, schedule: Q01DX009 (ip), vehicle: saline, evaluated on day 45): 104 % of control
T/C (dose: 25.0 mg/kg/injection, schedule: Q01DX009 (ip), vehicle: saline, evaluated on day 60): 107, 115, 128, 136 [8 of 10 alive], 147, 155, 156, 196, 235 % of control
survivor count (dose: 25.0 mg/kg/injection, schedule: Q01DX009 (ip), vehicle: saline): 9 of 10 and 10 of 10
T/C (dose: 25.0 mg/kg/injection, schedule: Q04DX003 (ip), vehicle: saline): 135 [8 of 10 alive] and 141 % of control
T/C (dose: 25.0 mg/kg/injection, schedule: Q07DX003 (ip), vehicle: saline): 126 and 142 % of control
T/C (dose: 25.0 mg/kg/injection, schedule: Q07DX005 (ip), vehicle: saline, evaluated on day 5): 133, 152, 177 % of control
T/C (dose: 25.0 mg/kg/injection, schedule: Q07DX005 (ip), vehicle: saline, evaluated on day 60): 133, 152, 177 % of control
survivor count (dose: 35.0 mg/kg/injection, schedule: Q01DX009 (ip), vehicle: saline): 10 of 10
T/C (dose: 37.5 mg/kg/injection, schedule: Q01DX001 (ip), vehicle: water): 130 % of control
survivor count (dose: 48.0 mg/kg/injection, schedule: Q01DX015 (ip), vehicle: saline): 10 of 10
T/C (dose: 50.0 mg/kg/injection, schedule: Q01DX001 (ip), vehicle: saline with Tween-80): 127 % of control
T/C (dose: 50.0 mg/kg/injection, schedule: Q01DX001 (ip), vehicle: saline, evaluated on day 5): 127 and 186 % of control
T/C (dose: 50.0 mg/kg/injection, schedule: Q01DX001 (ip), vehicle: saline, evaluated on day 11): 138 % of control
T/C (dose: 50.0 mg/kg/injection, schedule: Q01DX001 (ip), vehicle: saline, evaluated on day 13): 301 % of control
T/C (dose: 50.0 mg/kg/injection, schedule: Q01DX001 (ip), vehicle: saline, evaluated on day 45): 123, 140, 142 [9 of 10 alive], 150, 166 % of control
T/C (dose: 50.0 mg/kg/injection, schedule: Q01DX001 (ip), vehicle: saline, evaluated on day 60): 100, 111 [9 of 10 alive], 112 [8 of 10 alive], 117, 118, 121, 127 (2×), 130, 131 (2×), 132, 133, 135, 136, 137, 141, 152, 161, 177, 186 % of control
T/C [2]: 125, 138, 144, 197 % of control
survivor count [2]: 9 of 10 and 10 of 10 (2×)
T/C (dose: 50.0 mg/kg/injection, schedule: Q04DX003 (ip), vehicle: saline, evaluated on day 45): 180 % of control
T/C (dose: 50.0 mg/kg/injection, schedule: Q04DX003 (ip), vehicle: saline, evaluated on day 60): 101, 144 [9 of 10 alive], 160, 169 % of control
survivor count (dose: 50.0 mg/kg/injection, schedule: Q04DX003 (ip), vehicle: saline): 10 of 10
T/C (dose: 50.0 mg/kg/injection, schedule: Q07DX003 (ip), vehicle: saline): 115, 146, 155, 163, 184, 253 % of control
T/C (dose: 50.0 mg/kg/injection, schedule: Q07DX005 (ip), vehicle: saline, evaluated on day 5): 160, 181, 196 % of control
T/C (dose: 50.0 mg/kg/injection, schedule: Q07DX005 (ip), vehicle: saline, evaluated on day 60): 160, 181, 196 % of control
T/C (dose: 50.0 mg/kg/injection, schedule: Q10DX004 (ip), vehicle: saline, evaluated on day 5): 143 % of control
T/C (dose: 50.0 mg/kg/injection, schedule: Q10DX004 (ip), vehicle: saline, evaluated on day 60): 143 % of control
T/C (dose: 62.5 mg/kg/injection, schedule: Q04DX003 (ip), vehicle: saline, evaluated on day 45): 102, 203, 225 % of control
T/C (dose: 62.5 mg/kg/injection, schedule: Q04DX003 (ip), vehicle: saline, evaluated on day 60): 186 % of control
T/C (dose: 67.0 mg/kg/injection, schedule: Q09DX002 (ip), vehicle: saline): 125 % of control
T/C (dose: 75.0 mg/kg/injection, schedule: Q01DX001 (ip), vehicle: water): 140 % of control
